No constants are given. Whether binding was seen depends on the method and setting. For some assays here: Binding calls can cover weak binding; strength is not graded here. For some assays here: Tags and fused reporters may be left off the sequences shown.

The text below walks through data of article PMC5552852, “Structural basis for Ccd1 auto-inhibition in the Wnt pathway through homomerization of the DIX domain” (Scientific Reports, 2017).

Test [1] deals with T1, MBP-fused Dvl1 DIX domain (UniProt P51141).
T1 sequence: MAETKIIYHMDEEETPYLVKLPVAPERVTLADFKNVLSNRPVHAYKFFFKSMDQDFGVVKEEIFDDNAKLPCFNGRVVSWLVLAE
Briefly: pull-down; MBP-fused Axin or Dvl1 held on amylose resin, mCcd1 DIX free; 277 K, 1 h, 10 mM HEPES-Na pH 7.5, 150 mM NaCl, 1 mM DTT; SDS-PAGE (Figures 5a, 5d, 5e); both purified.

Test [2] addresses T2, MBP-fused Axin fragment, residues 690-740 (UniProt O70239).
T2 sequence: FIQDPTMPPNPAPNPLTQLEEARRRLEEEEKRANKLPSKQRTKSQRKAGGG
The description is as above.

For test [3], the target named is GST-fused mCcd1 DIX domain (mouse). The test can be described thus: pull-down; GST-fused mCcd1 as bait, Dvl1 DIX free; 277 K, 1 h, 10 mM HEPES-Na pH 7.5, 150 mM NaCl, 1 mM DTT; eluted with glutathione; SDS-PAGE (Figure 5b); both purified.

On to “mCcd1 DIX domain V445A/K446A (mouse) (domain or fragment)”, for which the binding result in test [1] was “no binding”.

Regarding “mCcd1 DIX domain W466A (mouse) (domain or fragment)”, the binding result in test [1] is “no binding”. Consider “mouse Coiled-coil-DIX1 (mCcd1) DIX domain (domain or fragment)”, for which the binding result is “no binding” in test [2] and “binds” in test [1].

B1: Dvl1 DIX domain (domain or fragment, UniProt P51141 1-85)
chain: T1 sequence
On to B1, for which, in test [3], the binding entry is “binds”.
